{"source": "patent US11642344B2", "about": "“Cholesteryl ester transfer protein (CETP) inhibitor and pharmaceutical compositions comprising said inhibitor for use in the treatment or prevention of cardiovascular diseases” (NewAmsterdam Pharma B.V., priority 2014, dated 2023)", "experiment": "Clinical repeated dose study: pharmacokinetics (LC/MS/MS plasma concentrations)", "details": "human, in vivo", "experimental": "The clinical study was a repeated dose study in 5 groups of Caucasian male subjects aged 18 to 55 years. Each subject received a single oral dose of Compound A/placebo on Day 1, followed by once daily doses on Days 8 to 35 (5 mg Compound A/placebo—Group 1) or Days 8 to 28 (1, 2.5, 10 and 25 mg Compound A/placebo—Groups 2 to 5). All doses were administered at the study center after a standard breakfast. Subjects in each dose group were allocated to study treatment in a ratio of 10 Compound A to 2 placebo. […] Secondary pharmacodynamic endpoints (including apolipoproteins A1, A2, B, and E, HDL2-C, HDL3-C, phospholipids, HDL-free cholesterol [HDL-FC], HDL-cholesteryl ester [HDL-CE], HDL-phospholipids [HDL-PL], HDL-triglycerides [HDL-TG], and LDL particle size) were measured at intervals until the last day of dosing. […]\nPlasma and urine concentrations of Compound A were determined using validated liquid chromatography with tandem mass spectrometry (LC/MS/MS) methods. The lower limit of quantification (LLQ) for both assays was 0.500 ng/mL. Plasma concentration of CETP was determined using a validated enzyme-linked immunosorbent assay (ELISA) method with a lower limit of quantification (LLQ) of 0.500 μg/mL. CETP activity was determined as the rate of [^3H]-labeled CE transfer from donor HDL to acceptor VLDL/LDL. […] LDL particle size was determined by gradient gel electrophoresis. […]", "note": "The name of at least one read-out is uncertain.", "data": [{"smiles": "CCOC(=O)N1c2ccc(C(F)(F)F)cc2[C@@H](N(Cc2cc(C(F)(F)F)cc(C(F)(F)F)c2)c2ncc(OCCCC(=O)O)cn2)C[C@H]1CC", "note": "[Compound A, {4-[(2-{[3,5-bis(trifluoromethyl)benzyl][(2R,4S)-1-(ethoxycarbonyl)-2-ethyl-6-(trifluoromethyl)-1,2,3,4-tetrahydroquinolin-4-yl]amino}pyrimidin-5-yl)oxy]butanoic acid}]", "values": [{"measurement": "bioavailability compared with other known CETP-inhibitors", "result": "surprisingly better bioavailability"}]}]}
